According to US20040171089A1, “High-throughput screening assay for identifying substances capable of modulating cell survival and/or proliferation” (priority 2001, published 2004):
Some results were stated once for a whole list of compounds, not compound by compound.

Tested on: microvascular endothelial cells
Experiment: MTS cell viability/proliferation assay, microvascular endothelial cells
Type: cell-based, human
Settings: 10 micromolar
Experimental: This was carried out using an MTS assay (reagents from Promega Corporation, Madison Wis., USA) which is a modification of the MTT assay (as described in Jacobson et al, 1994 EMBO J Vol 13 pp1899-1910). The assay depends on conversion of the MTS tetrazolium compound to a coloured formazan product in metabolically active cells; it is therefore an assay of viable cell number. A decline in values implies cell killing as long as cell disappearance by apoptosis in untreated cell populations is absent or negligible (as with most healthy primary cell populations).
Cells were seeded in the range 1.5×10^5-1.8×10^5 cells per ml of culture medium in 96 well microtitre plates and allowed to attach in a humidifed atmosphere of 5% CO2 in air at 37 deg C. Drugs were added 18-24 hours later and cell viability/proliferation measured at time intervals up to 48-72 hours post-drug addition when the experiment was terminated. Mean (±SE) values at each time point were obtained from wells in triplicate.
Cell viability was measured as follows: 20 μl of MTS solution (Promega) was added to wells and incubated at 37 deg C. for 3 hours during which time a coloured formazan product is generated in viable cells. […] Viable cell number was then measured by reading absorbance at 490 nm in a Dynex microtitre plate reader. […]

Row | Compound | time until significant decline in viability [h]
1 | N=C(Nc1ccc(I)cc1)NC1C2CC3CC(C2)CC1C3 (centres unmarked) [IPAG, 1-(4-iodophenyl)-3-(2-adamantyl)guanidine] | 24 to 48
2 | C[C@@H]1CN(CCCn2c3ccccc3c3ccccc32)C[C@H](C)N1 [rimcazole] | 24 to 48
